Laboratory results taken from article PMC4359025.
Results are given in words; binding and its absence hold for the method and conditions named. Binding seen in cells or lysates may run through a third protein. Some results given as binding are weak or reduced against the parent protein; the word gives no strength. Sequences can lack the tags named with a protein.

Biological target: T1, Par-6 fused with Flag epitope (Par6::Flag) (Drosophila (fly)) (UniProt O97111)
T1 sequence: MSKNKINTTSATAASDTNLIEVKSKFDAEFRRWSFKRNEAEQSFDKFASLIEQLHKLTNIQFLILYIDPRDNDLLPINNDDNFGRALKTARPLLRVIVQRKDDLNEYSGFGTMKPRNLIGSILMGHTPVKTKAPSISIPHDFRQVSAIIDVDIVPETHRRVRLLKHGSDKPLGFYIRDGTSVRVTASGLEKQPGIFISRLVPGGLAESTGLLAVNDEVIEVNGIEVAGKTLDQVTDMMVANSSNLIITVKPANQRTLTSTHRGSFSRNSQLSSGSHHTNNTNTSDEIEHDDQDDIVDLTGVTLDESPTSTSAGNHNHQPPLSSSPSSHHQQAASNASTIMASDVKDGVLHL
Assay: co-IP; S2 cell lysates transfected with control DNA, HA::Pbl, or HA::Pbl and Par6::FLAG; 5 ug anti-HA or anti-Flag antibody, Protein A/G magnetic beads; western blot with anti-Flag, anti-aPKC or anti-HA

B1: Endogenous aPKC protein (protein, UniProt A1Z9X0 1-606)
chain: MQKMPSQILNDGSSVSLNSASMNMANTPNSITVKTAYNGQIIITTINKNISYEELCYEIRNICRFPLDQPFTIKWVDEENDPCTISTKMELDEAIRLYEMNFDSQLVIHVFPNVPQAPGLSCDGEDRSIYRRGARRWRKLYRVNGHIFQAKRFNRRAFCAYCQDRIWGLGRQGFKCIQCKLLVHKKCHKLVQKHCTDQPEPLVKERAEESSDPIPVPLPPLPYEAMSGGAEACETHDHAHIVAPPPPEDPLEPGTQRQYSLNDFELIRVIGRGSYAKVLMVELRRTRRIYAMKVIKKALVTDDEDIDWVQTEKHVFETASNHPFLVGLHSCFQTPSRLFFVIEFVRGGDLMYHMQRQRRLPEEHARFYAAEISLALNFLHEKGIIYRDLKLDNVLLDHEGHIKLTDYGMCKEGIRPGDTTSTFCGTPNYIAPEILRGEDYGFSVDWWALGVLLYEMLAGRSPFDLAGASENPDQNTEDYLFQVILEKTIRIPRSLSVRAASVLKGFLNKNPADRLGCHRESAFMDIVSHPFFKNMDWELLERKQVTPPFKPRLDSDRDLANFPPEFTGEAVQLTPDDDHVIDNIDQSEFEGFEYVNPLLMSLEDCV
- binding: binds
